Publication PMC4977153
Results are given in words; binding and its absence hold for the method and conditions named. Binding seen in cells or lysates may run through a third protein. Here binding means that the protein was enriched with, or labelled near, the bait; the list need not be complete.

Sequences of proteins named here, by UniProt entry; tags and fusion partners are left off.
UniProt O88286: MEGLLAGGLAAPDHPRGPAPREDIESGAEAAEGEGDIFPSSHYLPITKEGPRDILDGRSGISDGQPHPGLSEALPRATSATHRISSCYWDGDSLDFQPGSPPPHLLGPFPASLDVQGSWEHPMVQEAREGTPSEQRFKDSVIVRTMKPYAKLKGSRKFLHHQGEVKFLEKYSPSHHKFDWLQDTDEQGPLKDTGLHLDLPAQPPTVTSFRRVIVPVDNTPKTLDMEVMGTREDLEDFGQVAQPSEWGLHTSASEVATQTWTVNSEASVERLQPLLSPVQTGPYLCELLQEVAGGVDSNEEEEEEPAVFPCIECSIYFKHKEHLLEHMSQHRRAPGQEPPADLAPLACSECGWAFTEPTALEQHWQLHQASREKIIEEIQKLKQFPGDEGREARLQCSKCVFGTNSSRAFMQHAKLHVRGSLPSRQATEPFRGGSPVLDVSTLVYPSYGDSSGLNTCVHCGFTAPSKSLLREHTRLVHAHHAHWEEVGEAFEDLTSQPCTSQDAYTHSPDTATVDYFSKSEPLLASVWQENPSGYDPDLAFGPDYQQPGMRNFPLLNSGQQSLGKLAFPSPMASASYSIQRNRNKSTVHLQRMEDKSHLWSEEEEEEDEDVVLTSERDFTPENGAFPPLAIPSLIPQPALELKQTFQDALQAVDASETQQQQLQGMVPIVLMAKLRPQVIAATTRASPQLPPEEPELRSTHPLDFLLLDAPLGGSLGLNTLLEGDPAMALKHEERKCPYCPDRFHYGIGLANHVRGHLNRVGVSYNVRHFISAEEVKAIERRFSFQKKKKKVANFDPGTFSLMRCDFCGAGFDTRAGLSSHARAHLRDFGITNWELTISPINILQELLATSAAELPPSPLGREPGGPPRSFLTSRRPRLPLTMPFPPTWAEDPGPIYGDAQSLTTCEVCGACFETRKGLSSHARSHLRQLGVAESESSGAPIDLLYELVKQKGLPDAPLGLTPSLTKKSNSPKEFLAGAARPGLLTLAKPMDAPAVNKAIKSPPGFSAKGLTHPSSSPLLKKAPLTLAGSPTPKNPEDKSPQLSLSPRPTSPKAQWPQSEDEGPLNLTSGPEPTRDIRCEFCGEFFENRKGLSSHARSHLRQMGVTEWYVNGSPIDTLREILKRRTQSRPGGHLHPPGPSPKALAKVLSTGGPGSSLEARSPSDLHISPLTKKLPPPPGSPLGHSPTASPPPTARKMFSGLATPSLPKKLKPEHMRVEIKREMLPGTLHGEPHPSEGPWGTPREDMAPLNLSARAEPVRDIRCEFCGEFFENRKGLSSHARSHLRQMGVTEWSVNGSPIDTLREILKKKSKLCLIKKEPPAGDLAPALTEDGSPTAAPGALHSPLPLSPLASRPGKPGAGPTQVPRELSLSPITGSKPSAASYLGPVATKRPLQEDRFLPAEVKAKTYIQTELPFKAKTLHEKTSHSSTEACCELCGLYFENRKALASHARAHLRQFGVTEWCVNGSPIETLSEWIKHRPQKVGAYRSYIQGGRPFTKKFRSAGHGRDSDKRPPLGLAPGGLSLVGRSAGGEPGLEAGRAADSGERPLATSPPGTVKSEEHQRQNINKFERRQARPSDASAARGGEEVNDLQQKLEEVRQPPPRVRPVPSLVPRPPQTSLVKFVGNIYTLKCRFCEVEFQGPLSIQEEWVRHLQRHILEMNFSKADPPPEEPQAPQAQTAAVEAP
UniProt Q9Z148: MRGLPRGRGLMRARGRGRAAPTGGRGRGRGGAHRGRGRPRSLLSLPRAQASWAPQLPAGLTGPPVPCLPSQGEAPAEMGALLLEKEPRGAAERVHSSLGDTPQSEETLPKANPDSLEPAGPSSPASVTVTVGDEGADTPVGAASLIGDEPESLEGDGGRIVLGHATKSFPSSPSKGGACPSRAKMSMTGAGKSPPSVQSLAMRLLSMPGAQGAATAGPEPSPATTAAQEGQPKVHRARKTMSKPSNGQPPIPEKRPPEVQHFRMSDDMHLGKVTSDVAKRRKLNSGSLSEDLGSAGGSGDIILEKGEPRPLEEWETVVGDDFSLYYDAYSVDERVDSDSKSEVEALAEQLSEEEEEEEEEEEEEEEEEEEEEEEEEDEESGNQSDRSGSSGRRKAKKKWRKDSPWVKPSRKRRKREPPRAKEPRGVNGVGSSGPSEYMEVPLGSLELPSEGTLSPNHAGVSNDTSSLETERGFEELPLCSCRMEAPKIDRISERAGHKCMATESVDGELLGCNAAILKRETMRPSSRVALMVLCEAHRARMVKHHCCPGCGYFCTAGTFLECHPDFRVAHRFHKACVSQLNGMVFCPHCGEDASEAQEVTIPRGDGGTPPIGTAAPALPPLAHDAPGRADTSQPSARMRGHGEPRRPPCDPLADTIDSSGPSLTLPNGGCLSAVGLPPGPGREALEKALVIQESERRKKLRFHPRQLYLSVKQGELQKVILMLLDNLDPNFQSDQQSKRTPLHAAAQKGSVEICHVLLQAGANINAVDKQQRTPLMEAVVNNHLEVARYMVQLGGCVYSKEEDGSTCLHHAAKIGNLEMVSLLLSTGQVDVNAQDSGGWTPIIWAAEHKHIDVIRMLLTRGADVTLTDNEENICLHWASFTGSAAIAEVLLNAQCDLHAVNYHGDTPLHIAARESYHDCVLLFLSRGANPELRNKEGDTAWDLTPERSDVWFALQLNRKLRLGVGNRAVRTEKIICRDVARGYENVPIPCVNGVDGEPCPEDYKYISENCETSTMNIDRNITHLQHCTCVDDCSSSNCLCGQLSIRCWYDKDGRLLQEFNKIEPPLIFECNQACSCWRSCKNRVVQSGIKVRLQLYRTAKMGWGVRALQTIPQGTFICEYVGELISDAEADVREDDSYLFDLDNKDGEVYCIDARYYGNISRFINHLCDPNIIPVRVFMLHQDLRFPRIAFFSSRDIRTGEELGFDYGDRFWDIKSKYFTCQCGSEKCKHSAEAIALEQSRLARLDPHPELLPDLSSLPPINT

Target: Widely interspaced zinc finger motifs, Wiz (mouse (endogenous in E13.5 brain and adult cerebellum)) (UniProt O88286)
Experiment: affinity purification with mass spectrometry; 500 ug nuclear lysate of pooled E13.5 mouse brain (n = 1 pooled sample) or adult cerebellum (n = 2) incubated with 2 ug anti-Wiz antibody (NBP180586) or anti-IgG control overnight at 4 degrees Celsius; Protein G Dynabeads; eluted proteins analysed by mass spectrometry

binding: binds
Substance: EHMT2 (from UniProt Q9Z148 1-1263)
